This assay deals with T1, MIC25 (UniProt Q9BRQ6).
T1 sequence: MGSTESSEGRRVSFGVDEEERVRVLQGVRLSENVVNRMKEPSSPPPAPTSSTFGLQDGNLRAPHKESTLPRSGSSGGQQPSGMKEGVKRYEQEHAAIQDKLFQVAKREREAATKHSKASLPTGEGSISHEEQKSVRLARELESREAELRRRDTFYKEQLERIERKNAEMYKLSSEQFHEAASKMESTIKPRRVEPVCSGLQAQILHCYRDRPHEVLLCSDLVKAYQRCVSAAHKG
Briefly: two-hybrid; MIC25 as bait in BD-pGBKT7, preys in AD-pGADT7; yeast AH109/Y187; mating test, beta-gal colour development at 30°C.

Sequences of proteins named here, by UniProt entry; tags and fusion partners are left off.
UniProt P62136: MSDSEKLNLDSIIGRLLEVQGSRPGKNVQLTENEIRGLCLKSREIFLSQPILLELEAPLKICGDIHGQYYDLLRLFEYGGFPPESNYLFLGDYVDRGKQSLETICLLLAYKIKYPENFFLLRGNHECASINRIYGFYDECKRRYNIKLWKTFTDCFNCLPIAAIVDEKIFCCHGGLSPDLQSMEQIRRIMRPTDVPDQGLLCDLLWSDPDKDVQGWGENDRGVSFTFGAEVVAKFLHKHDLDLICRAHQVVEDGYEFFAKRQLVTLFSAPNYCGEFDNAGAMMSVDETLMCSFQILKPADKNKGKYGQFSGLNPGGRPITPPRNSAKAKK

These are yes or no findings as the source states them, for the method shown. Some results given as binding are weak or reduced against the parent protein; the word gives no strength.

“PPP1CA (from UniProt P62136 1-330) (enzyme)”: the binding entry is given as “binds”.

B1: IMMT (protein, UniProt Q16891 1-758)
chain: MLRACQLSGVTAAAQSCLCGKFVLRPLRPCRRYSTSGSSGLTTGKIAGAGLLFVGGGIGGTILYAKWDSHFRESVEKTIPYSDKLFEMVLGPAAYNVPLPKKSIQSGPLKISSVSEVMKESKQPASQLQKQKGDTPASATAPTEAAQIISAAGDTLSVPAPAVQPEESLKTDHPEIGEGKPTPALSEEASSSSIRERPPEEVAARLAQQEKQEQVKIESLAKSLEDALRQTASVTLQAIAAQNAAVQAVNAHSNILKAAMDNSEIAGEKKSAQWRTVEGALKERRKAVDEAADALLKAKEELEKMKSVIENAKKKEVAGAKPHITAAEGKLHNMIVDLDNVVKKVQAAQSEAKVVSQYHELVVQARDDFKRELDSITPEVLPGWKGMSVSDLADKLSTDDLNSLIAHAHRRIDQLNRELAEQKATEKQHITLALEKQKLEEKRAFDSAVAKALEHHRSEIQAEQDRKIEEVRDAMENEMRTQLRRQAAAHTDHLRDVLRVQEQELKSEFEQNLSEKLSEQELQFRRLSQEQVDNFTLDINTAYARLRGIEQAVQSHAVAEEEARKAHQLWLSVEALKYSMKTSSAETPTIPLGSAVEAIKANCSDNEFTQALTAAIPPESLTRGVYSEETLRARFYAVQKLARRVAMIDETRNSLYQYFLSYLQSLLLFPPQQLKPPPELCPEDINTFKLLSYASYCIEHGDLELAAKFVNQLKGESRRVAQDWLKEARMTLETKQIVEILTAYASAVGIGTTQVQPE
Consider B1, for which the binding entry is “binds”.

B2: APOO (protein, UniProt Q9BUR5 1-198)
chain: MFKVIQRSVGPASLSLLTFKVYAAPKKDSPPKNSVKVDELSLYSVPEGQSKYVEEARSQLEESISQLRHYCEPYTTWCQETYSQTKPKMQSLVQWGLDSYDYLQNAPPGFFPRLGVIGFAGLIGLLLARGSKIKKLVYPPGFMGLAASLYYPQQAIVFAQVSGERLYDWGLRGYIVIEDLWKENFQKPGNVKNSPGTK
For B2, the binding entry was “binds”.

Values taken from PMC12119004.
